The source of these data is US9133119B2, “Compounds for electronic devices” (Merck Patent GmbH, priority 2010, dated 2015).

A short description of data set [1]: OLED characterisation: operating voltage, current efficiency, power efficiency, external quantum efficiency, electroluminescence spectra (IUL characteristic lines). The settings on record: for difference between the voltage for a thick HTL (200 nm) and a thinner HTL (110 nm): Examples C3 and C5, I1 and I2; for power efficiency: material in hole-transport layer 110 nm, Examples C3 and I1, H2:D2.

Data set [2] can be described thus: OLED lifetime (LD80 / LD50: time until the luminous density drops to a certain proportion of the initial luminous density).
The mark [3] stands for this setting: red-emitting mixed matrix, replacement of CBP (Examples C6 and I37).
Where [4] appears, read: OLED having an HTL with a thickness of 200 nm, Examples C5 and I2.
Setting [5] is: electron-blocking layer, TEG1, compared with EBM1.
[6] abbreviates: electron-blocking material, blue emission (D1), ETM1 as electron-transport material.

SMILES strings stand for the structures.

With `CC1(C)c2ccccc2-c2cc3c4cc(-c5ccc6c(c5)c5cccc7c5n6-c5ccccc5C7(C)C)ccc4n(-c4ccccc4)c3cc21` [H10, 3-(12,12-Dimethyl-10-phenyl-10,12-dihydro-10-azaindeno[2,1-b]fluoren-7-yl)-8,8-dimethyl-8H-indolo[3,2,1-de]acridine], the “increase in power efficiency” value in data set [1] (mixed matrix with H3, TEG1, compared with CBP (Examples C10, I27)) is 60%; in data set [1] (mixed matrix with H3, TEG1, compared with TCTA (Examples C18, I27)), “about 70%”. In addition, the “improvement in the voltage” value in data set [1] (setting [3]) is 1.1 V. Besides, in data set [1] (setting [3]), the “increase in the power efficiency” value was “about 50%”. Besides, the increase in lifetime in data set [2] (mixed matrix with H3, TEG1, compared with CBP) is about 60%.
Consider `Cc1ccc(N(c2ccc(C)cc2)c2ccc3c(c2)C2(c4cc(N(c5ccc(C)cc5)c5ccc(C)cc5)ccc4-3)c3cc(N(c4ccc(C)cc4)c4ccc(C)cc4)ccc3-c3ccc(N(c4ccc(C)cc4)c4ccc(C)cc4)cc32)cc1` [HTM1, reference compound], for which, in data set [1], the “difference between the voltage for a thick HTL (200 nm) and a thinner HTL (110 nm)” value amounted to 0.5 V; the power efficiency was determined as 10.7 lm/W. Moreover, the lifetime in data set [2] (setting [4]) is on record as 250,000 h.
On to `CC1(C)c2ccccc2-c2ccc(N(c3ccc(-c4ccccc4)cc3)c3ccc(-c4ccc5c(c4)c4cccc6c4n5-c4ccccc4C6(C)C)cc3)cc21` [HTM3, Biphenyl-4-yl-(9,9-dimethyl-9H-fluoren-2-yl)-[4-(8,8-dimethyl-8H-indolo[3,2,1-de]acridin-3-yl)phenyl]amine], for which the “increase in power efficiency” value in data set [1] (setting [5]) is on record as “about 10%”. Further, the “increase in quantum efficiency” value in data set [1] (setting [5]) is listed as “about 10%”. Further, the increase in lifetime in data set [2] (HTM3 as electron-blocking material vs NPB, blue emission) was 50%; in data set [2] (HTM3 as electron-blocking material vs NPB, green emission (Examples C3, C5, I5, I6)), “about 25%”; in data set [2] (electron-blocking layer, green-phosphorescent emitter TEG1, compared with EBM1 (Examples C12 and I17)), “more than 60%”. For the same compound, in data set [2] (setting [6]), the lifetime entry is given as “about 7700 h”.
For `CC1(C)c2ccccc2-n2c3ccc(N(c4ccccc4)c4ccc(-c5ccc(N(c6ccccc6)c6ccc7c(c6)c6cccc8c6n7-c6ccccc6C8(C)C)cc5)cc4)cc3c3cccc1c32` [HTM8, N4,N4′-Bis-(8,8-dimethyl-8H-indolo[3,2,1-de]acridin-3-yl)-N4,N4′-diphenylbiphenyl-4,4′-diamine], in data set [1], the “difference between the voltage for a thick HTL (200 nm) and a thinner HTL (110 nm)” value was found to be 0.3 V; the power efficiency is reported as 12.1 lm/W. In addition, the “reduction of operating voltage” value in data set [1] (HTM8 in hole-transport layer 110 nm, Example I1 compared with Example C3, H2:D2) is reported as 0.2 V. The “improvement in the power efficiency” value in data set [1] (HTM8 in hole-transport layer, Example I1 vs C3) was “about 15%”. The lifetime in data set [2] (setting [4]) is given as 340,000 h. In data set [2] (hole-transport layer thickness 110 nm, HTM8 vs HTM1), this compound registered an improvement in lifetime of 10%.
Turning to `c1ccc(N(c2ccc(-c3ccc(N(c4ccccc4)c4cccc5ccccc45)cc3)cc2)c2cccc3ccccc23)cc1` [NPB, reference compound], the lifetime in data set [2] (setting [6]) is 5200 h.
